We go through 11 sequences from paper doi:10.1101/2023.10.23.563394.

The exact form of at least one protein or probe is not confirmed. Negatives hold for the conditions tested. For part of these data: A weaker result is weaker than the reference pair of the same experiment.

Series [1] has as its system CHT7_CXC (Chlamydomonas reinhardtii). Briefly: fluorescence polarization. For orientation: Fluorescence polarisation rises when a labelled molecule tumbles more slowly, as on binding a larger partner.
The test system is the same in series [2]. Kind of series: EMSA. On the technique in general: A gel shift assay detects complexes by their altered migration in electrophoresis.
Series [3] relates to CXC_C (Chlamydomonas reinhardtii). Briefly: EMSA.
Series [4] concerns CXC_N (Chlamydomonas reinhardtii). Briefly: EMSA.
For series [5] the test system is unchanged. Kind of series: fluorescence polarization.

“GGTGTTTGAATTT (double strand) [13mer TTTGAA, 6-FAM]”: the binding result in series [1] is on record as “no binding”.
Regarding “GGTGTTTGAATTT (double strand) [13mer TTTGAA (EMSA)]”, in series [2], the binding result is recorded as “binds more weakly”.
Still for that read-out and setting: the same measure for “GATCAATAGATGCGCAGATCATTTACATT (double strand) [29mer without TTYRAA site]”: “no binding”.
Regarding “TATCTGGTGTTTGAATTTCTGGATCTG (double strand) [27mer TTTGAA (EMSA)]”, the binding result was “binds” in series [2], “no binding” in series [3] and “binds more weakly” in series [4].
For “TATCTGGTGCCTGAATTTCTGGATCTG (double strand) [27mer CCTGAA (EMSA)]” the same measures were “binds”, “no binding” and “binds more weakly”.
The matching figures for “TATCTGGTGTTTGCCTTTCTGGATCTG (double strand) [27mer TTTGCC (EMSA)]”: “binds more weakly”, “no binding” and “no binding”.
Take “TATCTGGTGCCTGCCTTTCTGGATCTG (double strand) [27mer CCTGCC (EMSA)]”: the binding result in series [2] is on record as “no binding”.
Regarding “TATCTGGTGCCTGCCTTTCTGGATCTG (double strand) [27mer CCTGCC, 6-FAM]”, the binding result in series [1] is recorded as “no binding”.
“TATCTGGTGTTTGCCTTTCTGGATCTG (double strand) [27mer TTTGCC, 6-FAM]”: the binding result in series [1] and in series [5] was “no binding” each time.
Take “TTCTTTTCATTTGAATGGTTTTCCGAC (double strand) [LHCB5 DNA]”: the binding result in series [2] is reported as “binds”.
Still for that read-out and setting: as for “TGGACTGGATTTGAACGATTGAAAGCT (double strand) [LHCA6 DNA]”, the entry is “binds”.
